Laboratory results: PubChem BioAssay AID493246 (Drosophila RNAi Screening Center, 2011)

Aim: 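Genes fly cells need to grow and stay alive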 (primary screen)
Cells: Drosophila Kc and S2R+ cells
Knock-down reagent: long dsRNA against Drosophila genes
Detection: 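Cell number per well after knock-down, printed as raw plate values; calls were based on per-plate z-scores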
Reading the numbers: Kc cell number and S2R+ cell number: higher = more cells remaining
Active means: 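Counted as a hit if cell number falls by a z-score of at least 3 within its plate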
The screen tested about 21,000 reagents; this is a random part of those with a known target gene and a result. Of all reagents, 429 (2%) are marked active. 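Values are raw and not normalised between plates; calls rest on per-plate z-scores that were not deposited.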 Unmarked entries are inactive. A plus sign joins genes that one reagent is predicted to hit. The record does not give: the amount of reagent, the time to read-out.

The first 2 records, ahead of the listing:
CG6280 [DRSC06972]
- Kc cell number, rep 1: 1.66e6
- Kc cell number, rep 2: 1.69e6
- S2R+ cell number, rep 1: 1.22e6
- S2R+ cell number, rep 2: 1.37e6

CG40191 [DRSC21041]
- Kc cell number, rep 1: 1.65e6
- Kc cell number, rep 2: 1.66e6
- S2R+ cell number, rep 1: 1.03e6
- S2R+ cell number, rep 2: 1.22e6

Results, from the start:
CG6280 [DRSC06972]
- Kc cell number, rep 1: 1.66e6
- Kc cell number, rep 2: 1.69e6
- S2R+ cell number, rep 1: 1.22e6
- S2R+ cell number, rep 2: 1.37e6

CG40191 [DRSC21041]
- Kc cell number, rep 1: 1.65e6
- Kc cell number, rep 2: 1.66e6
- S2R+ cell number, rep 1: 1.03e6
- S2R+ cell number, rep 2: 1.22e6

sol (small optic lobes) [DRSC20587]
- Kc cell number, rep 1: 1.47e6
- Kc cell number, rep 2: 1.48e6
- S2R+ cell number, rep 1: 9.64e5
- S2R+ cell number, rep 2: 1.09e6

CG15554 [DRSC15092]
- Kc cell number, rep 1: 1.57e6
- Kc cell number, rep 2: 1.59e6
- S2R+ cell number, rep 1: 1.07e6
- S2R+ cell number, rep 2: 1.22e6

CG10431 [DRSC02055]
- Kc cell number, rep 1: 1.53e6
- Kc cell number, rep 2: 1.61e6
- S2R+ cell number, rep 1: 1.27e6
- S2R+ cell number, rep 2: 2.82e5

nAChRalpha4 (nicotinic Acetylcholine Receptor alpha4) [DRSC11925]
- Kc cell number, rep 1: 1.49e6
- Kc cell number, rep 2: 1.50e6
- S2R+ cell number, rep 1: 1.07e6
- S2R+ cell number, rep 2: 1.29e6

bdwf (bedwarfed) [DRSC15532]
- Kc cell number, rep 1: 1.65e6
- Kc cell number, rep 2: 1.71e6
- S2R+ cell number, rep 1: 1.29e6
- S2R+ cell number, rep 2: 1.33e6

Acp95EF (Accessory gland protein 95EF) [DRSC14102]
- Kc cell number, rep 1: 1.80e6
- Kc cell number, rep 2: 1.70e6
- S2R+ cell number, rep 1: 1.03e6
- S2R+ cell number, rep 2: 1.17e6

CG12121 [DRSC17816]
- Kc cell number, rep 1: 1.57e6
- Kc cell number, rep 2: 1.42e6
- S2R+ cell number, rep 1: 1.03e6
- S2R+ cell number, rep 2: 1.12e6

CkIIalpha-i1 (CKII-alpha subunit interactor-1) [DRSC11115]
- Kc cell number, rep 1: 1.34e6
- Kc cell number, rep 2: 1.46e6
- S2R+ cell number, rep 1: 1.24e6
- S2R+ cell number, rep 2: 1.34e6

X11Lbeta [DRSC18156]
- Kc cell number, rep 1: 1.63e6
- Kc cell number, rep 2: 1.69e6
- S2R+ cell number, rep 1: 9.80e5
- S2R+ cell number, rep 2: 1.15e6

X11Lbeta [DRSC18158]
- Kc cell number, rep 1: 1.55e6
- Kc cell number, rep 2: 1.56e6
- S2R+ cell number, rep 1: 1.04e6
- S2R+ cell number, rep 2: 1.17e6

CYTB (retired record) [DRSC21272]
- Kc cell number, rep 1: 1.66e6
- Kc cell number, rep 2: 1.62e6
- S2R+ cell number, rep 1: 1.15e6
- S2R+ cell number, rep 2: 1.27e6

Tom70 (Translocase of outer membrane 70) [DRSC02990]
- Kc cell number, rep 1: 1.51e6
- Kc cell number, rep 2: 1.58e6
- S2R+ cell number, rep 1: 1.02e6
- S2R+ cell number, rep 2: 1.16e6

CG15120 [DRSC06542]
- Kc cell number, rep 1: 1.50e6
- Kc cell number, rep 2: 1.56e6
- S2R+ cell number, rep 1: 1.07e6
- S2R+ cell number, rep 2: 1.21e6

CG7488 [DRSC16250]
- Kc cell number, rep 1: 1.26e6
- Kc cell number, rep 2: 1.16e6
- S2R+ cell number, rep 1: 9.57e5
- S2R+ cell number, rep 2: 1.00e6

inaC (inactivation no afterpotential C) [DRSC07632]
- Kc cell number, rep 1: 1.43e6
- Kc cell number, rep 2: 1.44e6
- S2R+ cell number, rep 1: 1.26e6
- S2R+ cell number, rep 2: 1.36e6

Mkp + CG34140 [DRSC08585]
- Kc cell number, rep 1: 1.41e6
- Kc cell number, rep 2: 1.40e6
- S2R+ cell number, rep 1: 1.23e6
- S2R+ cell number, rep 2: 1.27e6

CG11537 [DRSC08200]
- Kc cell number, rep 1: 1.02e6
- Kc cell number, rep 2: 1.38e6
- S2R+ cell number, rep 1: 1.27e6
- S2R+ cell number, rep 2: 8.93e5

DCTN5-p25 (Dynactin 5, p25 subunit) [DRSC03525]
- Kc cell number, rep 1: 1.50e6
- Kc cell number, rep 2: 1.61e6
- S2R+ cell number, rep 1: 1.17e6
- S2R+ cell number, rep 2: 1.25e6

eIF3j (eukaryotic translation initiation factor 3 subunit j) [DRSC06107]
- Kc cell number, rep 1: 1.57e6
- Kc cell number, rep 2: 1.64e6
- S2R+ cell number, rep 1: 1.14e6
- S2R+ cell number, rep 2: 1.06e6

Txl (Thioredoxin-like) [DRSC11310]
- Kc cell number, rep 1: 1.60e6
- Kc cell number, rep 2: 1.79e6
- S2R+ cell number, rep 1: 1.08e6
- S2R+ cell number, rep 2: 1.16e6

CG5440 [DRSC00685]
- Kc cell number, rep 1: 1.71e6
- Kc cell number, rep 2: 1.74e6
- S2R+ cell number, rep 1: 9.96e5
- S2R+ cell number, rep 2: 1.13e6

Cdc7 (Cdc7 kinase) [DRSC18428]
- Kc cell number, rep 1: 1.72e6
- Kc cell number, rep 2: 1.78e6
- S2R+ cell number, rep 1: 1.08e6
- S2R+ cell number, rep 2: 1.19e6

Cdc7 (Cdc7 kinase) [DRSC18429]
- Kc cell number, rep 1: 1.69e6
- Kc cell number, rep 2: 1.63e6
- S2R+ cell number, rep 1: 9.99e5
- S2R+ cell number, rep 2: 1.08e6

CG9150 [DRSC03148]
- Kc cell number, rep 1: 1.52e6
- Kc cell number, rep 2: 1.43e6
- S2R+ cell number, rep 1: 1.17e6
- S2R+ cell number, rep 2: 1.32e6

Slbp (Stem-loop binding protein) [DRSC16863]
- Kc cell number, rep 1: 1.37e6
- Kc cell number, rep 2: 1.41e6
- S2R+ cell number, rep 1: 1.02e6
- S2R+ cell number, rep 2: 1.12e6
